Some entries share one result that the patent states for a list of compounds. At least one structure is not confirmed: it was looked up by name or label, or the drawing left a doubt.
Columns and labels:
Botrytis cinerea = test: Volatile MIC of Samples 1-4 (Example 19); format: cell-based; settings: 3 days at 23 C
Experimental: A 3-ml volume of full-strength Potato Dextrose Agar (PDA) is added to each well. […] Cat. No. 1001-0155) are placed on the underside of a polyethylene PCR plate sealing film. […] The acetone is permitted to evaporate for 5 minutes. The headspace around the Botrytis cinerea inoculum is then sealed inside the well by the film with the adhering disk containing the fungicide. Plates are inverted to prevent any possibility of the chemical from flaking from the disk and falling onto the inoculated agar.

[1] = tested on: Escherichia coli (ATCC #25922); test: Antimicrobial activity against bacteria (Example 20); format: cell-based; settings: volatile; 2 days at 23 C

Row | SMILES | Antimicrobial activity against Botrytis cinerea and/or other pathogens (in words) (Botrytis cinerea) | Antimicrobial activity against Escherichia coli (in words) [1]
1 | Fc1ccc2c(c1)COB2OCCOB1OCc2cc(F)ccc21 [Sample 1] | good antimicrobial activity | good antimicrobial activity
2 | c1ccc2c(c1)COB2OCCOB1OCc2ccccc21 [Sample 2] | good antimicrobial activity | good antimicrobial activity
3 | CC(C)(OB1OCc2cc(F)ccc21)C(C)(C)OB1OCc2cc(F)ccc21 [Sample 3] | good antimicrobial activity | good antimicrobial activity
4 | CC(COB1OCc2cc(F)ccc21)OB1OCc2cc(F)ccc21 (centres unmarked) [Sample 4] | good antimicrobial activity | good antimicrobial activity

Reference: patent publication US12329158B2, “Large-scale methods of uniformly coating packaging surfaces with a volatile antimicrobial to preserve food freshness” (AGROFRESH INC., priority 2013, dated 2025)
